Experimental findings from patent US20210085785A1 (TRUEBINDING, published 2021) are described below.

Test [1] deals with T1, Flag-tagged hLRIG1 (human) (UniProt Q96JA1).
T1 sequence: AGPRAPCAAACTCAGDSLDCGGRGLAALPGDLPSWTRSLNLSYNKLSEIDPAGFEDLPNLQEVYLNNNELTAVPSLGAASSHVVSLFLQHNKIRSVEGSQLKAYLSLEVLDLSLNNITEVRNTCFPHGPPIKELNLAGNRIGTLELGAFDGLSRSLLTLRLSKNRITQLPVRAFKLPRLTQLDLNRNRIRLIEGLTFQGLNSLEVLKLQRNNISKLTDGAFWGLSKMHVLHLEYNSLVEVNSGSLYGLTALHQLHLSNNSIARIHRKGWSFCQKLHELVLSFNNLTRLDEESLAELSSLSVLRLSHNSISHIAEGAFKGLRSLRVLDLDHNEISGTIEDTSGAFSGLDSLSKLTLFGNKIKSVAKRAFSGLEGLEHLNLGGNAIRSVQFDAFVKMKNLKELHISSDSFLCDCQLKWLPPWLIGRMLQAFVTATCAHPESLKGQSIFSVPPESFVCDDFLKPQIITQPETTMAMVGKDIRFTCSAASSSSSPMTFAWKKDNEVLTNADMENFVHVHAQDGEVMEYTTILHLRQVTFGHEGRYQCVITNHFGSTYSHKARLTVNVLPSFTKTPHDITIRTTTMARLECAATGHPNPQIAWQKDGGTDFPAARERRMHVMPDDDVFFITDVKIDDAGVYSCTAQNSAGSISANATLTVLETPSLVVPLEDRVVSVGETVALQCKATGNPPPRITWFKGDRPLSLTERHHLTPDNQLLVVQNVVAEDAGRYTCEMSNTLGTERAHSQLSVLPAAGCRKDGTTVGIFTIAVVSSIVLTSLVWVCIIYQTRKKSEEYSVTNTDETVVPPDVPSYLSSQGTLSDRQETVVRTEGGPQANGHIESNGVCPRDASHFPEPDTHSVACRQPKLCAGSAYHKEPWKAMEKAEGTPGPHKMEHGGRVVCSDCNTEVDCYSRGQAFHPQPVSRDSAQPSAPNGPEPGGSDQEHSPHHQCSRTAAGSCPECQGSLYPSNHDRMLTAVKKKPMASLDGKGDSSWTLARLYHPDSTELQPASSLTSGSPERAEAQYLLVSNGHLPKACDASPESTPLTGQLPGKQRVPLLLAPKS
The test is described as follows: co-immunoprecipitation: anti-HA pull-down from co-transfected 293T lysate, blot probed with anti-Flag.

Test [2] addresses T2, purified VISTA (cross-linking mass spectrometry) (Homo sapiens (Human)) (UniProt Q9H7M9).
T2 sequence: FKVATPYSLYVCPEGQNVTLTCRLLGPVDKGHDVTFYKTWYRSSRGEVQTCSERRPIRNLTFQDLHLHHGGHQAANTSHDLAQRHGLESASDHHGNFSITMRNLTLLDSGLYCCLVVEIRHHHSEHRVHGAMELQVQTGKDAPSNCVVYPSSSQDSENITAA
The test is described as follows: chemical cross-linking (K200 kit) and High-Mass MALDI MS; 3.2 uM LRIG1 mixed with 0.6 uM VISTA.

The next test has as its target T3, HA-tagged hVISTA (human) (UniProt Q9H7M9).
T3 sequence: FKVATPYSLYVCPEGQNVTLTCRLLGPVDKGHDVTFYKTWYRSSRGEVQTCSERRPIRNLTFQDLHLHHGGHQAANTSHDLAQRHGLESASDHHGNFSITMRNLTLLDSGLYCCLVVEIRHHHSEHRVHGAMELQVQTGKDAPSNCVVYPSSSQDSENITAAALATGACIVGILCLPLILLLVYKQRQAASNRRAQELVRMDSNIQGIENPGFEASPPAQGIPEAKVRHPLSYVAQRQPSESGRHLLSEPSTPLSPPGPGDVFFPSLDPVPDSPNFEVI
The test is described as follows: co-immunoprecipitation from co-transfected 293T cells.

Results are given in words; binding and its absence hold for the method and conditions named. For part of these data: Binding seen in cells or lysates may run through a third protein. Some entries that bind do so weakly or less than the wild type. For part of these data: Where a sequence is shown, tags or fusion partners need not be part of it.

For “HA-tagged hVISTA (from UniProt Q9H7M9 33-311) (receptor)”, the binding result in test [1] is recorded as “binds”.

B1: purified LRIG1 (cross-linking mass spectrometry) (receptor)
chain: AGPRAPCAAACTCAGDSLDCGGRGLAALPGDLPSWTRSLNLSYNKLSEIDPAGFEDLPNLQEVYLNNNELTAVPSLGAASSHVVSLFLQHNKIRSVEGSQLKAYLSLEVLDLSLNNITEVRNTCFPHGPPIKELNLAGNRIGTLELGAFDGLSRSLLTLRLSKNRITQLPVRAFKLPRLTQLDLNRNRIRLIEGLTFQGLNSLEVLKLQRNNISKLTDGAFWGLSKMHVLHLEYNSLVEVNSGSLYGLTALHQLHLSNNSIARIHRKGWSFCQKLHELVLSFNNLTRLDEESLAELSSLSVLRLSHNSISHIAEGAFKGLRSLRVLDLDHNEISGTIEDTSGAFSGLDSLSKLTLFGNKIKSVAKRAFSGLEGLEHLNLGGNAIRSVQFDAFVKMKNLKELHISSDSFLCDCQLKWLPPWLIGRMLQAFVTATCAHPESLKGQSIFSVPPESFVCDDFLKPQIITQPETTMAMVGKDIRFTCSAASSSSSPMTFAWKKDNEVLTNADMENFVHVHAQDGEVMEYTTILHLRQVTFGHEGRYQCVITNHFGSTYSHKARLTVNVLPSFTKTPHDITIRTTTMARLECAATGHPNPQIAWQKDGGTDFPAARERRMHVMPDDDVFFITDVKIDDAGVYSCTAQNSAGSISANATLTVLETPSLVVPLEDRVVSVGETVALQCKATGNPPPRITWFKGDRPLSLTERHHLTPDNQLLVVQNVVAEDAGRYTCEMSNTLGTERAHSQLSVLPAAGCRKDGTTVG
For B1, the binding entry in test [2] was “binds”.

B2: Flag-tagged hLRIG1 (receptor, not shown: small tags and cut ends)
chain: T1 sequence
On to B2, for which the binding entry with HA-tagged hVISTA (human) was “binds”.
